This is an account of results in article PMC9275889.

The chains behind the UniProt entries cited, without tags or fusion partners. Where a name states a change or a piece, a line headed by the entry shows the natural chain unless it says otherwise. Residues count along the entry.
UniProt Q9NPD8: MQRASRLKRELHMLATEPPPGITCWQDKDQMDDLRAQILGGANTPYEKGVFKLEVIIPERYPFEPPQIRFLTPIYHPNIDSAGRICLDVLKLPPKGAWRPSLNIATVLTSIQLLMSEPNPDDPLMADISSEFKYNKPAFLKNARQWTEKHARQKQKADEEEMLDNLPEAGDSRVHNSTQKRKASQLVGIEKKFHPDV
UniProt Q9UBX5, residues 24-448: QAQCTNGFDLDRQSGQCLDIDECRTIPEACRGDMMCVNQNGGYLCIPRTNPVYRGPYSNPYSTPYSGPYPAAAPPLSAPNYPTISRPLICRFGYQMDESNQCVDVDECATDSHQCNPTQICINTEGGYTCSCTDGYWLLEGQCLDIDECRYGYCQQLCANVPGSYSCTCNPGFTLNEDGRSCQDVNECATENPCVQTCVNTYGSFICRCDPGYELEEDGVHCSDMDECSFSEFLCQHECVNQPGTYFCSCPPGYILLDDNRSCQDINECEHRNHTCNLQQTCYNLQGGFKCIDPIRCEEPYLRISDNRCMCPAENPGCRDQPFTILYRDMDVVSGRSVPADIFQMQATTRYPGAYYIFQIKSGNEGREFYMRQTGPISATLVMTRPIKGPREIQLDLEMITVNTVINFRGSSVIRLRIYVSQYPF

These are yes or no findings as the source states them, for the method shown. Binding seen in cells or lysates may run through a third protein. Some binding calls cover weakened binding; strength is not graded here.

For the assay, the target named is GST-UBE2T (ubiquitin-conjugating enzyme E2T) (human) (UniProt Q9NPD8). Description: pull-down; GST-UBE2T on GST beads (3 h), then Flag-FBLN5 from H1975 cell lysate added for 3 h; washed five times; detected by western blotting; only the target purified. (In western blotting, separated proteins are transferred to a membrane and probed.)

As to “Flag-FBLN5 (fibulin-5) (from UniProt Q9UBX5 24-448)”, the binding result was “binds”.
